Test results taken from US20240226230A1.
No constants are given. Whether binding was seen depends on the method and setting. Some binding calls cover weakened binding; strength is not graded here. Each block holds one substance with its values, some of them ahead of it.

Protein sequences, listed by entry. Tags and fused reporters are not part of them. Lines headed by an entry give the natural chain unless they say otherwise; changes in a name come on top. Chains listed by the source or under a name are the forms on record and can include a tag or linker. Residues count along the entry.
endogenous Nup62 (P37198, residues 2-522): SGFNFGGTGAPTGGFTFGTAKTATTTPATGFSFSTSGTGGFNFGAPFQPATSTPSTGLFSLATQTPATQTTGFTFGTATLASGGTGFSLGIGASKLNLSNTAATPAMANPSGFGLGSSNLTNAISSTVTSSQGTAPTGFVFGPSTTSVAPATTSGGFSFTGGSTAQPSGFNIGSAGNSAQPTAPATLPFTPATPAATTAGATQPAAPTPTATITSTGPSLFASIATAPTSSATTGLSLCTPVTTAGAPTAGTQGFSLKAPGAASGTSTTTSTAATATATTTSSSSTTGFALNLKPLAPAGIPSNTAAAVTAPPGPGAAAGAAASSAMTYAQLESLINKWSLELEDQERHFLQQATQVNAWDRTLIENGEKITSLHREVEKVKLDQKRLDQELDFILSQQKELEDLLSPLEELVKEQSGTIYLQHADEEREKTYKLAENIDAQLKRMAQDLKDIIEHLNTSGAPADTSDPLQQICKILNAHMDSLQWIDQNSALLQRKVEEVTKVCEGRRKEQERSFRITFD
Nup62-mCherry (P37198, form named): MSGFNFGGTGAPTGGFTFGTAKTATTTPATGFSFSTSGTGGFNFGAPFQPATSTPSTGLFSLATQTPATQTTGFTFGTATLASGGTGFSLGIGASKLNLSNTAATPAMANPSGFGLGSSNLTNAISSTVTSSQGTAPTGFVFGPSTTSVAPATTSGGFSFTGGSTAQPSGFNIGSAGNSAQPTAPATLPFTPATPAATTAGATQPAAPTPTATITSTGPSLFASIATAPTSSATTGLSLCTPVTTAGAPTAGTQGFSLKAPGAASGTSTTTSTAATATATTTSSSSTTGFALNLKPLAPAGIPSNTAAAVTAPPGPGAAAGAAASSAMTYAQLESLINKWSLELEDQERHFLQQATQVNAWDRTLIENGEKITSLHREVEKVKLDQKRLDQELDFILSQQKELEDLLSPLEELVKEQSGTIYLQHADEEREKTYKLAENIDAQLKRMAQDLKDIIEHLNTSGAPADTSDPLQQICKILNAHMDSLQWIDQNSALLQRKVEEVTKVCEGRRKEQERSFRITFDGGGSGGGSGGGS
UniProt P52948, residues 1-880: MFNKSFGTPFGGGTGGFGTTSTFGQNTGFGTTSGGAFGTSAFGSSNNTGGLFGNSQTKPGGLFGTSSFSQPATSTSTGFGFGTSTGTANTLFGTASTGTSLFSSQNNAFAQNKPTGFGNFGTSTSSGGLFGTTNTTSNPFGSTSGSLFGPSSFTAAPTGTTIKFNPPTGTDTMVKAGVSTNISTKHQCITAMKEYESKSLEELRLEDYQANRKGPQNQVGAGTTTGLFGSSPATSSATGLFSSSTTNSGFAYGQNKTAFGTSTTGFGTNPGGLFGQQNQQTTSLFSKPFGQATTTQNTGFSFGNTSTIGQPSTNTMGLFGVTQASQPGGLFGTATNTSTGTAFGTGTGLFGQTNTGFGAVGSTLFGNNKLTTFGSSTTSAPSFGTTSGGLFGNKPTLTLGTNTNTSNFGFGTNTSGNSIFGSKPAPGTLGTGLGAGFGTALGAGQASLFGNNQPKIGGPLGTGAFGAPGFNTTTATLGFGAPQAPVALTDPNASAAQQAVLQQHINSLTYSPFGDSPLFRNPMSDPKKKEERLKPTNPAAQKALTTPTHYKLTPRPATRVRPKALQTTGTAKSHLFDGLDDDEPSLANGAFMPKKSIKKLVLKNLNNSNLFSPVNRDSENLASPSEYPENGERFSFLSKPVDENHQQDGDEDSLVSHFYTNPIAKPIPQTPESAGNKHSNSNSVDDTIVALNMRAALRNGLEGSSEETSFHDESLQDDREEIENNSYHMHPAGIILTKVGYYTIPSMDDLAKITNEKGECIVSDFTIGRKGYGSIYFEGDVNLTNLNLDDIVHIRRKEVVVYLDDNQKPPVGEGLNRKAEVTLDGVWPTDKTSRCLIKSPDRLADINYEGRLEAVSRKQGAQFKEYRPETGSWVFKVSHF
GFP-XPO1 (O14980, form named): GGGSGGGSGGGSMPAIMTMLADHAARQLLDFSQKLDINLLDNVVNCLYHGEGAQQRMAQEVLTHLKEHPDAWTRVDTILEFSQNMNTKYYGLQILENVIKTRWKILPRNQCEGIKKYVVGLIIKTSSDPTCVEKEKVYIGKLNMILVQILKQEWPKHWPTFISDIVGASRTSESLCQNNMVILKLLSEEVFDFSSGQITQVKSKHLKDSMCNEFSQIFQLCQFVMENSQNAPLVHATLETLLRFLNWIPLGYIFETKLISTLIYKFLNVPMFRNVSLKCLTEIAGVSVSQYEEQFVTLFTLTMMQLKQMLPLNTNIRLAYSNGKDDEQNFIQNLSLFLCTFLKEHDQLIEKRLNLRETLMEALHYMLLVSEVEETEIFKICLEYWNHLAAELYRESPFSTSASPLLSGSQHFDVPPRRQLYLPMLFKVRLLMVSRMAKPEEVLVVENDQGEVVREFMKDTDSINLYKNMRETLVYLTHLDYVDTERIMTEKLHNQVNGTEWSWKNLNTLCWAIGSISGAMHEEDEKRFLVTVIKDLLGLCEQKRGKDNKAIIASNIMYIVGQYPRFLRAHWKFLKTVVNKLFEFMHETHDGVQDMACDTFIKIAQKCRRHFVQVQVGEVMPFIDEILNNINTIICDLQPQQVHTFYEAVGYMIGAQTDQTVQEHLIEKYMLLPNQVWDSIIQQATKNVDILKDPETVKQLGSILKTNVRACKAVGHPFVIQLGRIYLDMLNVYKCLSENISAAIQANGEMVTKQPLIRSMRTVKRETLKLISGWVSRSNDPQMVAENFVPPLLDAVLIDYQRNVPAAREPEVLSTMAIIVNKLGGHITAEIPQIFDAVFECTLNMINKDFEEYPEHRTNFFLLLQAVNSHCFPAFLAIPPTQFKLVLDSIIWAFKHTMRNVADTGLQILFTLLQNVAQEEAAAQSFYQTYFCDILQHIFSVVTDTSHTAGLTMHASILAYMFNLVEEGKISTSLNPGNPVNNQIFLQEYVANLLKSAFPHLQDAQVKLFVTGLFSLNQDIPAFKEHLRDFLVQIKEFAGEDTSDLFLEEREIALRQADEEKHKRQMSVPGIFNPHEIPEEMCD

How the values were obtained:
mCherry-TDP-CTF (human) [1] = biological target: mCherry-TDP-CTF (human) (UniProt Q13148); test: co-localisation by immunofluorescence in HEK293T cells (not a direct binding assay)
mCherry-TDP-PrLD (human) = mCherry-TDP-PrLD (human) (UniProt Q13148); test: co-localisation by immunofluorescence in HEK293T cells (FIG. 35; not a direct binding assay)
[2] = biological target: mCherry-TDP-43^mNLS (human) (UniProt Q13148); test: as above
mCherry-TDP-CTF (human) [3] = biological target: mCherry-TDP-CTF (human) (UniProt Q13148); test: as above
[4] = biological target: GFP-TDP-CTF^VLIM-F (human) (UniProt Q13148); test: co-localisation by immunocytochemistry (not a direct binding assay)
GFP-TDP-CTF (human) [5] = biological target: GFP-TDP-CTF (human) (UniProt Q13148); test: GFP-Trap IP from HEK293T lysates, western blot (FIG. 22D; TDP-CTF is the reference)
GFP-TDP-CTF (human) [6] = biological target: GFP-TDP-CTF (human) (UniProt Q13148); test: GFP-Trap IP from HEK293T lysates, western blot
GFP-TDP-PrLD (human) [7] = biological target: GFP-TDP-PrLD (human) (UniProt Q13148); test: co-localisation by fluorescence microscopy of co-transfected cells (not a direct binding assay)
GFP-TDP-CTF (human) [8] = biological target: GFP-TDP-CTF (human) (UniProt Q13148); test: as above
GFP-TDP-43^mNLS (human) [9] = biological target: GFP-TDP-43^mNLS (human) (UniProt Q13148); test: as above
GFP-TDP-PrLD (human) [10] = biological target: GFP-TDP-PrLD (human) (UniProt Q13148); test: co-localisation by immunofluorescence in HEK293T cells (not a direct binding assay)
[11] = biological target: GFP-TDP-43^mNLS 5F-L (human) (UniProt Q13148); test: as above
GFP-TDP-CTF (human) [12] = biological target: GFP-TDP-CTF (human) (UniProt Q13148); test: as above
GFP-TDP-43^mNLS (human) [13] = biological target: GFP-TDP-43^mNLS (human) (UniProt Q13148); test: as above
Nup62-mCherry [14] = biological target: Nup62-mCherry (UniProt P37198); test: as above
Nup62-mCherry [15] = biological target: Nup62-mCherry (UniProt P37198); test: co-localisation by immunofluorescence in HEK293T cells (FIG. 22G; not a direct binding assay)

Substance: GFP-Nup98 (from UniProt P52948 1-880)
binding (mCherry-TDP-CTF (human) [1]): binds
binding (mCherry-TDP-PrLD (human)): binds
binding [2]: binds
binding (mCherry-TDP-CTF (human) [3]): binds

Substance: endogenous Nup62 (from UniProt P37198 2-522)
binding [4]: binds
binding (GFP-TDP-CTF (human) [5]): binds
binding (GFP-TDP-CTF (human) [6]): binds

Substance: endogenous Nup98 (from UniProt P52948 1-880)
binding (GFP-TDP-CTF (human) [5]): binds

Substance: GFP-XPO1 (from UniProt O14980 1-1071)
binding (Nup62-mCherry [15]): binds
binding (Nup62-mCherry [14]): binds

More lines, now with the values ahead:

binding (GFP-TDP-PrLD (human) [7]): binds
binding (GFP-TDP-CTF (human) [8]): binds
binding (GFP-TDP-43^mNLS (human) [9]): binds
binding (GFP-TDP-PrLD (human) [10]): binds
binding [11]: binds
binding (GFP-TDP-CTF (human) [12]): binds
binding (GFP-TDP-43^mNLS (human) [13]): binds
Substance: Nup62-mCherry (from UniProt P37198 1-522)

binding (Nup62-mCherry [14]): binds
Substance: GFP-TNPO1 (from UniProt Q92973 1-890)
